The structures given here were assigned with low confidence; some may be wrong.
Biological target: SIRT1 (Homo sapiens, UniProt Q96EB6)
Experiment: SIRT1 mass spectrometry (MS) based deacetylation assay; for FOLD ACT. MS: test concentration or dose not given here
Type: biochemical

By UniProt entry, the sequences of proteins in these tests, tags left out.
UniProt Q96EB6, whole entry: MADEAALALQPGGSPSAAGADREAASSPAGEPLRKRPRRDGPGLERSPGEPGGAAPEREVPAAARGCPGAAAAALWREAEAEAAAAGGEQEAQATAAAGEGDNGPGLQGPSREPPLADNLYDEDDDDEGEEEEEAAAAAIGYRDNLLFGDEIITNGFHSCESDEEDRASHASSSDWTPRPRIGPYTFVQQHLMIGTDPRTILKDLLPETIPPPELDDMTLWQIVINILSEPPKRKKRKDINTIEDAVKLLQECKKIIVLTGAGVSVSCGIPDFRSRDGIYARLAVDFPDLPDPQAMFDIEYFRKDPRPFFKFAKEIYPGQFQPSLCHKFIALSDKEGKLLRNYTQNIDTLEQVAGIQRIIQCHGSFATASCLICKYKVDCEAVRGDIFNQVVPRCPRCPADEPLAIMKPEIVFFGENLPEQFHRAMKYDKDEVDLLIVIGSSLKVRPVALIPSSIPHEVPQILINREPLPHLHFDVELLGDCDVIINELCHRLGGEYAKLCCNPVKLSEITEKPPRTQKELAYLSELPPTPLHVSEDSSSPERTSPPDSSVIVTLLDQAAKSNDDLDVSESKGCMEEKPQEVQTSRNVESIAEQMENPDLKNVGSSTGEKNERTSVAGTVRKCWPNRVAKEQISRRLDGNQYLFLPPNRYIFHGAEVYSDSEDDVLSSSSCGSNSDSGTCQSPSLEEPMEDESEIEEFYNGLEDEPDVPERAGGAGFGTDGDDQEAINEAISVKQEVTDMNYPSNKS

FOLD ACT. MS (fold activation of SIRT1, mass spectrometry assay): B (B (Fold Activation <250%)) | EC50 (read-out: ED50 MS ASSAY, SIRT1 activation, mass spectrometry assay): < 5 µM
Structure (SMILES): COc1cc(C(=O)Nc2cccc(-c3nc4ncccc4o3)c2)ccc1CN1CCOCC1

From patent US8044198B2, “Sirtuin modulating compounds” (Sirtris Pharmaceuticals, Inc., priority 2005, dated 2011)
